Reference: the supplement of paper PMC6411743
± gives the standard deviation of the averaged measurements. Only a part is listed here, and it is no random draw.

Chains of the proteins cited; added tags and fusions are not shown. Lines headed by an entry give the natural chain unless they say otherwise; changes in a name come on top.
UniProt O75935, whole entry: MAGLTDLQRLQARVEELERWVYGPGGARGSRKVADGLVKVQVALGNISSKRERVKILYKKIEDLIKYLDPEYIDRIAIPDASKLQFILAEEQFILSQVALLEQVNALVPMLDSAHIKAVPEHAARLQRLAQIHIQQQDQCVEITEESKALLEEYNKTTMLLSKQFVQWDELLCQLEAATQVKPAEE
UniProt O60493, whole entry: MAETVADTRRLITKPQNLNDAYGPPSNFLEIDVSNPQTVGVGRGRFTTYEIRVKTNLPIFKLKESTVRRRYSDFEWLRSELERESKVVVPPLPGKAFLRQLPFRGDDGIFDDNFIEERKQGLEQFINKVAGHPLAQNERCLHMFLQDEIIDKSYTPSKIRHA
UniProt O60563, whole entry: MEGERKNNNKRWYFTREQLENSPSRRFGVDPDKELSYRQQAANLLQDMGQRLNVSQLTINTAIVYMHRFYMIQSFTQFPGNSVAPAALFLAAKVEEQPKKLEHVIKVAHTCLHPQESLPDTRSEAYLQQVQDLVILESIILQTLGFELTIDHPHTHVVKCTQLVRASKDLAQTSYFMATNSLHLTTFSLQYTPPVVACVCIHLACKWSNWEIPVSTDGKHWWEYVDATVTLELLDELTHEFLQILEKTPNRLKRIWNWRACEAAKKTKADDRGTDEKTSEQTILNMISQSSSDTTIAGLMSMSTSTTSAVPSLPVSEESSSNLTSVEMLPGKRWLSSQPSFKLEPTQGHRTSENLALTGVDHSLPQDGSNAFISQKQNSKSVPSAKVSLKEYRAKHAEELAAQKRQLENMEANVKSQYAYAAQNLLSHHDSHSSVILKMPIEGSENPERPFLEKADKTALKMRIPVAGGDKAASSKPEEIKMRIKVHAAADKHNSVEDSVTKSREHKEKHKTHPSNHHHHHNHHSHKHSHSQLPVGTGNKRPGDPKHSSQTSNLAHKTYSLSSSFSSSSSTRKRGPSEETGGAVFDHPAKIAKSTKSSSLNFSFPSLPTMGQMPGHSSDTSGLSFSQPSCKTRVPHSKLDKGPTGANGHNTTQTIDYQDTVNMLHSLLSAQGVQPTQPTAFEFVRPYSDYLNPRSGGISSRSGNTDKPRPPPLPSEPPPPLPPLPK
UniProt O75582, whole entry, looked up: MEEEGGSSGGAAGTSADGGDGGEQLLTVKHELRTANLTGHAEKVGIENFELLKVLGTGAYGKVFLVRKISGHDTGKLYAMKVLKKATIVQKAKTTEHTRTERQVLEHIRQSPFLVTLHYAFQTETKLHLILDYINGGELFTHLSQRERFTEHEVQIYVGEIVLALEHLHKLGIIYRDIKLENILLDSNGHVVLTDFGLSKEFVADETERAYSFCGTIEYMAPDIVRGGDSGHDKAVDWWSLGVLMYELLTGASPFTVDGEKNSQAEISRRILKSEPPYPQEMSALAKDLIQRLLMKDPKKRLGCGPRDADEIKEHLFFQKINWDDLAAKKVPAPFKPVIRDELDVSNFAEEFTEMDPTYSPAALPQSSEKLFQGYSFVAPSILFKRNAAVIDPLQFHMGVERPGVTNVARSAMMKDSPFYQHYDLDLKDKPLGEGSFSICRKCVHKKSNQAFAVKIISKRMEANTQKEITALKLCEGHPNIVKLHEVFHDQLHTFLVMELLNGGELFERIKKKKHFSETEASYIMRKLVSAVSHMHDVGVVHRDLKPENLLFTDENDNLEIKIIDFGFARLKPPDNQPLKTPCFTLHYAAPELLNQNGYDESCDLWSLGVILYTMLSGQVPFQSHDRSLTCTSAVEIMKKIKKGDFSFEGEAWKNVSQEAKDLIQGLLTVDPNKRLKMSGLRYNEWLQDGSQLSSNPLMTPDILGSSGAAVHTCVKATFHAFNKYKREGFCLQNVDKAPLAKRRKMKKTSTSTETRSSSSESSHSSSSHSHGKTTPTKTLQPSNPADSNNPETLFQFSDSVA
UniProt O75554: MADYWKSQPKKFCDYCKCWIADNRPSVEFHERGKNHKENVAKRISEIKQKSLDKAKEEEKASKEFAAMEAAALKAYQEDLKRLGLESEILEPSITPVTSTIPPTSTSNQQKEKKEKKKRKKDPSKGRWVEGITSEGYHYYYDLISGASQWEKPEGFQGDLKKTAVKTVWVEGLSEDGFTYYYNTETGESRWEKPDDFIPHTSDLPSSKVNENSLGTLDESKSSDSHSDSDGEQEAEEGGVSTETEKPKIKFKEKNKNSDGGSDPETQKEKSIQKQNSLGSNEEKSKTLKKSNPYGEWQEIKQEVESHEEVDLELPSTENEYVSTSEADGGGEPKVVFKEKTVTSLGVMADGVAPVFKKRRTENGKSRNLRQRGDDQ
UniProt O75909: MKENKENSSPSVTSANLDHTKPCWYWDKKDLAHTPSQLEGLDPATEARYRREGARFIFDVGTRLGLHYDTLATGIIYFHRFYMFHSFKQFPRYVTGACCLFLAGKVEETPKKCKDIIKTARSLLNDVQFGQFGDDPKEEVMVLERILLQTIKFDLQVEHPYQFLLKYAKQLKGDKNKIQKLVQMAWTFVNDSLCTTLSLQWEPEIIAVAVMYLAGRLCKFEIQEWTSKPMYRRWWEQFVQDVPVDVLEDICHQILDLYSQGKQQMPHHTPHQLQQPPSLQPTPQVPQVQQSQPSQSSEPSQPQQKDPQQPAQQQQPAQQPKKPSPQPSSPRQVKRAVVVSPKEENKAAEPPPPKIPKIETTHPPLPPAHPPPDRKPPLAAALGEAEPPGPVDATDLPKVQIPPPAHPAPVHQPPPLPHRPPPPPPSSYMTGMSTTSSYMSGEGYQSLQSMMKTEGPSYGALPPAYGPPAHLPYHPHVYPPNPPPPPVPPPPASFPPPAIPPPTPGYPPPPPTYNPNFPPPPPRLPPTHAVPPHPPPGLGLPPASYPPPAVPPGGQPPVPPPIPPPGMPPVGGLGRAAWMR
UniProt O75083: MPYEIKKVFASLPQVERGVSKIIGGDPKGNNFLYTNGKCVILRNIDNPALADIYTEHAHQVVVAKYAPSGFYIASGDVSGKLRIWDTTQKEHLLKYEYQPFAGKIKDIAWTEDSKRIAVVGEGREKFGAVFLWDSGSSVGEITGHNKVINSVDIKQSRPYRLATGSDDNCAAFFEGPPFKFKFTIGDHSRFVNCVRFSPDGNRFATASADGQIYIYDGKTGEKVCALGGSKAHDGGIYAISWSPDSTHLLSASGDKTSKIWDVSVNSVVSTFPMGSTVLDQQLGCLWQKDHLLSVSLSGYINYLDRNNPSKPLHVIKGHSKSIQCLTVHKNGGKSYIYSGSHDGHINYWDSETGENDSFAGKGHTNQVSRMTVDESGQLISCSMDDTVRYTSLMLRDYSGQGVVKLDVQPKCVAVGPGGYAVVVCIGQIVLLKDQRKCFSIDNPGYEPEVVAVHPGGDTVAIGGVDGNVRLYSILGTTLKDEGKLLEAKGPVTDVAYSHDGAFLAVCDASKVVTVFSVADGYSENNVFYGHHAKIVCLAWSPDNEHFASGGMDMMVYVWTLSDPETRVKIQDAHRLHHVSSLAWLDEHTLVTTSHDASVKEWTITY
UniProt O60762: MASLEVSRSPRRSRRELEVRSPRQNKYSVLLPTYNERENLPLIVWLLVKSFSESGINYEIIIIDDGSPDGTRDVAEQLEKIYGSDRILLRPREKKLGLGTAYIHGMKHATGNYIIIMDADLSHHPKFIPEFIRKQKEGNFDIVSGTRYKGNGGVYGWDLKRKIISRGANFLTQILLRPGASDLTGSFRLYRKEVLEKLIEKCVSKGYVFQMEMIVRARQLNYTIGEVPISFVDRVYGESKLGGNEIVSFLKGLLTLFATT
UniProt O95602, whole entry: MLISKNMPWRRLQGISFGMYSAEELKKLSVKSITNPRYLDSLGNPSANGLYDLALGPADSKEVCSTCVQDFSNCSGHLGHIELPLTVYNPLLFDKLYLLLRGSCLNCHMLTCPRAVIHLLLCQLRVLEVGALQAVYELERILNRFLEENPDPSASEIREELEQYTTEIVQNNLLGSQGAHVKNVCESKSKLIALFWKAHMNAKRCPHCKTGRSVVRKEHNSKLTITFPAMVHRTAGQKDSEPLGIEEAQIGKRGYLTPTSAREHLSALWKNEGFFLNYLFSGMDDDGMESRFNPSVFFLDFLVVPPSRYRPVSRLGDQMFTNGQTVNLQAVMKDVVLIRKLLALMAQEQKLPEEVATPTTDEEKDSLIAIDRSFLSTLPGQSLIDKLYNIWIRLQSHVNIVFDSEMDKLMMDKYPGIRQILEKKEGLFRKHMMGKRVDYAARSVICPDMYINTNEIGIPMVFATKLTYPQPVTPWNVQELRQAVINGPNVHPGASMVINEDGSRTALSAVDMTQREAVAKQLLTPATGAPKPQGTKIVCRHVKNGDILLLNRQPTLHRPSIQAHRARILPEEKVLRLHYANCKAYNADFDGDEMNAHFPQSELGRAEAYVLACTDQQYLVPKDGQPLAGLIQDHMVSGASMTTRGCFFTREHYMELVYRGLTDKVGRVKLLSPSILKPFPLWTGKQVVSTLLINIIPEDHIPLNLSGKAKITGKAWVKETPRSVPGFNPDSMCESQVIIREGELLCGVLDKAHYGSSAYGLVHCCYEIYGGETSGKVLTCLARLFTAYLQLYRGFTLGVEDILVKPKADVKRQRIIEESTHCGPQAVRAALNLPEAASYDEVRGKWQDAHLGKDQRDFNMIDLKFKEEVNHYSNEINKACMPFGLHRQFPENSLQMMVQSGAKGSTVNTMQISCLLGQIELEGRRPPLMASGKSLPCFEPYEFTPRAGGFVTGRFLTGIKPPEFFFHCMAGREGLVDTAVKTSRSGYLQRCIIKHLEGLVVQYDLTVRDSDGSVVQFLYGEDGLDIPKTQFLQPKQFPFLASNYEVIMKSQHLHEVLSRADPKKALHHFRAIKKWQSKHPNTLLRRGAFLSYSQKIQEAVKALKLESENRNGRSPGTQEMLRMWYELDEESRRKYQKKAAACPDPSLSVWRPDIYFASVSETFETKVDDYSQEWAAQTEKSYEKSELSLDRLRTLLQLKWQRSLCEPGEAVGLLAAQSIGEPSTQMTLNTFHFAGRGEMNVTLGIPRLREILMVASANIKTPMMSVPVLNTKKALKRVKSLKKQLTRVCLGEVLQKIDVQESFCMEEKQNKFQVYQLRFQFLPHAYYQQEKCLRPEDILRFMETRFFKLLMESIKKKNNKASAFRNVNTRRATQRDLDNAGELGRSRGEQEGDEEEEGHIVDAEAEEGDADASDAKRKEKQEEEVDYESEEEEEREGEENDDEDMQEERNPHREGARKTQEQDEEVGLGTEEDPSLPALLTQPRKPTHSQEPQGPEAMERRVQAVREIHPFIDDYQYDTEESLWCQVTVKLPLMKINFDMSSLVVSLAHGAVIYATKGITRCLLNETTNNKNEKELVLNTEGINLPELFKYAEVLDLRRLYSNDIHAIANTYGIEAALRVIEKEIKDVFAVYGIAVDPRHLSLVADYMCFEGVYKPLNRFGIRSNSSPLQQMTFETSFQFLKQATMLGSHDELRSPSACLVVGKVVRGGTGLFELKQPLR
UniProt O76024: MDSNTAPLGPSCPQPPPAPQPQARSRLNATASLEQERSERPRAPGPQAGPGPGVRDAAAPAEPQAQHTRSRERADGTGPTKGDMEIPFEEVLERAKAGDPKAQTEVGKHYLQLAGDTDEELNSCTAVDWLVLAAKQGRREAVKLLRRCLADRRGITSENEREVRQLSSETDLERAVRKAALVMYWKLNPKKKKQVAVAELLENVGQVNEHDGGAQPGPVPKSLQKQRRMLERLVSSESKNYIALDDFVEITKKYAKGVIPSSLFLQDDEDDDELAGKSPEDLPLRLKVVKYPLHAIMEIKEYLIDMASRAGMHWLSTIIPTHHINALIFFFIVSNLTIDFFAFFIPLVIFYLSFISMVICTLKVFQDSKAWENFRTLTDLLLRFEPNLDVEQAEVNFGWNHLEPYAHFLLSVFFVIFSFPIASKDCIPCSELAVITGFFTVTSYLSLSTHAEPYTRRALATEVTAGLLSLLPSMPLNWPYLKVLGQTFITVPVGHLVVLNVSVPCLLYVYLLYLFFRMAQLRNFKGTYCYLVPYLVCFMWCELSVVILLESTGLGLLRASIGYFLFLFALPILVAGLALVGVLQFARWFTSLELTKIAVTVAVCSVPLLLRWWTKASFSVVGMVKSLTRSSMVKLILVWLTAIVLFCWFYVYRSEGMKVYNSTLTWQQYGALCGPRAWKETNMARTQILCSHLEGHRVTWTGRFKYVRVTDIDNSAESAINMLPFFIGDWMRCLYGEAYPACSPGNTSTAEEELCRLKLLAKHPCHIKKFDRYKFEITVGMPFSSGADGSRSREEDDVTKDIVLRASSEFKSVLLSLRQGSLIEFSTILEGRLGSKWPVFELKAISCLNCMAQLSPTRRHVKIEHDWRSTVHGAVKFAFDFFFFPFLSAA
UniProt O60888: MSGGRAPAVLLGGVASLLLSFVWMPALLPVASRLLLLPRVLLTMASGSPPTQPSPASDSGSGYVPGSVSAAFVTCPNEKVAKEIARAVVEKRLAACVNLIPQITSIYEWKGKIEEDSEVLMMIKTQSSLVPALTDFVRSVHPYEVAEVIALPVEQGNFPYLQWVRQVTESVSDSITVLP

These targets were tested with Nc1ncnc2c1ncn2[C@@H]1O[C@H](COP(=O)(O)OP(=O)(O)OP(=O)(O)O)[C@@H](O)[C@H]1O [adenosine triphosphate] (assay: NP40-soluble protein abundance relative to vehicle (solubility fold change) (ratio); higher = more soluble protein in presence of ATP). Conditions: concentration: 1mM.
Procedure, shortened: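 Each value is a fold change relative to the detergent-processed vehicle, calculated per replicate from vsn-normalised intensities. Jurkat crude lysate received eight concentrations (0.1 to 10 mM) for 10 min at room temperature and 3 min at 37 °C, then was solubilised in 0.8% NP40 with benzonase (60 min, 4 °C). The ultracentrifuged supernatant was TMT-labelled and run by LC-MS/MS in three independent experiments.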

Target	NP40-soluble protein abundance
UniProt O75935 and related entries	0.947 ± 0.053
UniProt O75145 and related entries	0.984 ± 0.039
GGCT (UniProt O75223)	0.9068 ± 0.0067
SNX3 (UniProt O60493)	0.959 ± 0.067
CCNT1 (UniProt O60563)	1.1 ± 0.016
UniProt O95297 and related entries	0.927 ± 0.075
UniProt O75190 and related entries	1.11 ± 0.064
UniProt O95248-4|G5E933 and related entries	1.06 ± 0.031
UniProt O94973 and related entries	1.05 ± 0.051
UniProt O75582 and related entries	1.04 ± 0.041
HIP1R (UniProt O75146)	1.03 ± 0.042
YEATS4 (UniProt O95619)	0.9808 ± 0.0096
UniProt O75554 and related entries	1.05 ± 0.042
FARS2 (UniProt O95363)	0.986 ± 0.047
RNGTT (UniProt O60942)	0.997 ± 0.026
CCNK (UniProt O75909)	1.14 ± 0.077
MTRF1 (UniProt O75570)	0.991 ± 0.053
UniProt O75534 and related entries	0.986 ± 0.024
UniProt O75323	1.04 ± 0.062

Target	NP40-soluble protein abundance
WDR1 (UniProt O75083)	0.999 ± 0.051
UniProt O95475	1.07 ± 0.08
UniProt O60762 and related entries	1.21 ± 0.19
UniProt O94916 and related entries	0.944 ± 0.099
PRMT3 (UniProt O60678)	1.05 ± 0.089
POLR1A (UniProt O95602)	1.1 ± 0.043
UniProt O75486 and related entries	1.07 ± 0.15
WFS1 (UniProt O76024)	1.14 ± 0.24
TOX (UniProt O94900)	0.884 ± 0.082
PRKD3 (UniProt O94806)	1.12 ± 0.074
B3GAT3 (UniProt O94766)	0.976 ± 0.012
ATG7 (UniProt O95352)	0.969 ± 0.026
UniProt O75037 and related entries	1.08 ± 0.022
UniProt O60888 and related entries	0.892 ± 0.066
UniProt O95273 and related entries	1.03 ± 0.023
ATP6V1G1 (UniProt O75348)	0.889 ± 0.08
UniProt O95271 and related entries	1.06 ± 0.059
IPO13 (UniProt O94829)	1.05 ± 0.18

Looked up above.
Under NP40-soluble protein abundance, ATP6V1G1 (UniProt O75348) is entered as 0.889 ± 0.08
Under NP40-soluble protein abundance, ATG7 (UniProt O95352) is entered as 0.969 ± 0.026
